Here are results for one substance from article doi:10.1101/2020.05.04.075176.

By UniProt entry, the sequences of proteins in these tests, tags left out. Residues count along the entry.
WRN Helicase (residues 517-1093) (Q14191, residues 517-1093): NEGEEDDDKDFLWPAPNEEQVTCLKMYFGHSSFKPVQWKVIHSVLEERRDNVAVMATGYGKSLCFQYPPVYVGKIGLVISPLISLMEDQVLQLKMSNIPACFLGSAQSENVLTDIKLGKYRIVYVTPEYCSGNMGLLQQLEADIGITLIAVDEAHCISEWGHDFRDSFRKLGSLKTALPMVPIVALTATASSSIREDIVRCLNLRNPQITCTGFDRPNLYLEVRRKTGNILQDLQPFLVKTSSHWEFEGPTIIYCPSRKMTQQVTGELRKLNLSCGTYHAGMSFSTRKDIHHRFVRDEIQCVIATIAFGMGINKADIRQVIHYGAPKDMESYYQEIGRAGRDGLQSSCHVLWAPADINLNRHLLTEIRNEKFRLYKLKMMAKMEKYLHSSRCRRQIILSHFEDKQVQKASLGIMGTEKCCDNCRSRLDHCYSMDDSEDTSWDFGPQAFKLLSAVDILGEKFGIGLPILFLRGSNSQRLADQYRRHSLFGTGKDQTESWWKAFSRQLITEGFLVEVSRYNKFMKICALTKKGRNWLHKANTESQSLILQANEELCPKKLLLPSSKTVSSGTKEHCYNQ
WRN HRDC domain (residues 1142-1242), 15N-labelled (Q14191, residues 1142-1242): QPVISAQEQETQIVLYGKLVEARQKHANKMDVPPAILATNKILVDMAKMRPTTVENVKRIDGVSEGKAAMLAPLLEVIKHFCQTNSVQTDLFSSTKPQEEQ

These are yes or no findings as the source states them, for the method shown.

The target of test [1] is WRN Helicase (residues 517-1093) (human) (UniProt Q14191). The experiment in a line: crystal structure.
Test [2] deals with WRN HRDC domain (residues 1142-1242), 15N-labelled (human) (UniProt Q14191). The experiment in a line: NMR titration.

For “WRN Helicase (residues 517-1093) (from UniProt Q14191 517-1093) (domain or fragment)”, the binding entry was “no binding” in test [1] and “no binding (tested: 20 μM)” in test [2].
